Measured values published in US20100279930A1 (published 2010).

Sequences of proteins named here, by UniProt entry; tags and fusion partners are left off. A change or cut given only in a name is not applied to a line headed by its entry.
UniProt P50391: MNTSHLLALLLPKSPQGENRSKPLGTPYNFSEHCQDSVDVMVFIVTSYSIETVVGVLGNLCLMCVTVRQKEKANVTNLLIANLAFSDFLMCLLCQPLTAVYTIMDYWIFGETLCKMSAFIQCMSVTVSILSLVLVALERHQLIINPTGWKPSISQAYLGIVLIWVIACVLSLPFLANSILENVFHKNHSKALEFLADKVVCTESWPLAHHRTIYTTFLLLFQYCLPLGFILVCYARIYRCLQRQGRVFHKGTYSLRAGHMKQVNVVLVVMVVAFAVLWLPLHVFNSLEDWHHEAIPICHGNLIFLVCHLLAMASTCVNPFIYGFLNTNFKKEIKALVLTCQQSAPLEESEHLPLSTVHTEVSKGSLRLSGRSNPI

Target: human Y4 receptor (human, UniProt P50391 1-375)
Test: 125I-PP displacement

IC50: 0.143 nM
B1: 4058066 (protein)
chain: CAPLEPTYPGDNATPEQLARYYSALRRYINLLTRPRYCAPLEPTYPGDNATPEQLARYYSALRRYINLLTRPRY
